The values that follow are results of earlier work, collected in patent US7579333B2 (Teva Pharmaceutical Industries Ltd., priority 2004, dated 2009).

This data set concerns femoral bone mass density. To be noted: 1 year; 60 mg/day raloxifene, 10 mg/day alendronate; 331 patients.

As for `NCCCC(O)(P(=O)(O)O)P(=O)(O)O` [alendronate], the “improvement in femoral bone mass density” value is reported as 2.7%.
